Reference: article PMC10952133, “Phytocystatin 6 is a context‐dependent, tight‐binding inhibitor of Arabidopsis thaliana legumain isoform β” (The Plant Journal, 2023)

Sequences of proteins named here, by UniProt entry; tags and fusion partners are left off. A change or cut given only in a name is not applied to a line headed by its entry.
UniProt Q39119: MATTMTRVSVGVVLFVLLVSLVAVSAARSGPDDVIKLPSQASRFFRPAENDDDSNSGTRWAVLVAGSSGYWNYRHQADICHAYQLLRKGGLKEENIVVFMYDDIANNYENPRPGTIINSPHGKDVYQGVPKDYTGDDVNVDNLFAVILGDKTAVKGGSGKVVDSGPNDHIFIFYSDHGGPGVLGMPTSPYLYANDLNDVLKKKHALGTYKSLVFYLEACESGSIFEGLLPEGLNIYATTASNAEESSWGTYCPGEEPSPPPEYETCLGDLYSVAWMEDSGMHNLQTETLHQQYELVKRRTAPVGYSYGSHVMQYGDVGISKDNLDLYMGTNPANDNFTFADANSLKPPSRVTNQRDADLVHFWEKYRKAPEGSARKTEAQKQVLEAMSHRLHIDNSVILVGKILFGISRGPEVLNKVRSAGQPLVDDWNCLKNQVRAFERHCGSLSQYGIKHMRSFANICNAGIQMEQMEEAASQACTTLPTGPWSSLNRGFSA

Target: Arabidopsis thaliana legumain isoform γ, activated (AtLEGγ) (Arabidopsis thaliana) (UniProt Q39119)
Test: condition: inhibitor up to 15-fold the enzyme concentration (50 nM enzyme); enzyme inhibition kinetics (Ki, Morrison equation); turnover of 50 μM Z-Ala-Ala-Asn-AMC by 50 nM legumain, 25°C, 20 mM citric acid pH 5.5, 100 mM NaCl, 0.02% Tween 20, 2 mM DTT; inhibitor in 1:2 serial dilutions from 15-fold the enzyme concentration, quadruplicates; both purified

B1: N-terminal domain of AtCYT6 (AtCYT6-NTD, A35-D127) (domain or fragment, Arabidopsis thaliana, UniProt Q8H0X6-1 35-127, looked up)
chain: ALVGGVGDVPANQNSGEVESLARFAVDEHNKKENALLEFARVVKAKEQVVAGTLHHLTLEILEAGQKKLYEAKVWVKPWLNFKELQEFKPASD
notes: Arabidopsis thaliana cystatin 6, N-terminal cystatin domain, residues A35-D127; Cloned into pET-28; source: E. coli BL21(DE3), purified (Ni-NTA, SEC)
Q: With B1 as the binder, how does the binding read?
A: The binding was “no binding”.

These are yes or no findings as the source states them, for the method shown.
